# Assay results from paper PMC12040169 (PLOS Biology, 2025).
# The other results are listed elsewhere or left out.
# Tested on: T1, CTL2-GFP (C. trachomatis L2/434/Bu, GFP-expressing)
# T1 construct: L2/434/Bu, GFP-expressing
# Parameters: species or system HeLa; Intracellular C. trachomatis growth in HeLa cells, bulk GFP fluorescence relative to DMSO
# Settings: bulk GFP, single well; 28.5 h, 10 µM; inhibitor
row,SMILES,% of control remaining [%]
1,O=C(NC1CCS(=O)(=O)C1)c1cc(-c2cccnc2)cnc1NCc1ccc2c(c1)OCO2 (stereo not drawn) [CBK076455],142.408
2,Cc1ccc(NC2=NC(C(=O)Nc3ccc(C)c(C)c3)CC(=O)N2)cc1 (stereo not drawn) [CBK266718],116.859
3,Cc1ccc(S(=O)(=O)NC(=O)N2CC3(C)CC2CC(C)(C)C3)cc1 (stereo not drawn) [CBK023512],107.06
4,OC(CN1CCN(c2ccc(C(F)(F)F)cn2)CC1)c1ccc2c(c1)OCCO2 (stereo not drawn) [CBK074707],84.3393
5,COc1ccc(OC)c(C(O)CN2CCCC(C(=O)N3CCCCCC3)C2)c1 (stereo not drawn) [CBK286286],104.354
6,COc1ccc(C(=O)N2CCC3(CCN(CCCCC4NC(=O)NC4=O)C3)C2)cc1OC (stereo not drawn) [CBK132169],137.653
7,O=C(NCCc1c[nH]c2ccccc12)c1cc(Br)cnc1N1CCOCC1 [CBK076224],127.353
8,Cn1ccnc1C1(O)CCN(C(=O)CCc2ccccc2)CC1 [CBK283542],127.973
9,Clc1ccc(-c2nc(-c3ccncc3)no2)c(Cl)c1 [CBK262615],103.637
10,C=CCN1C(=O)CC2(C1=O)C(=O)N(C)c1ccc(Cl)cc12 (stereo not drawn) [CBK075242],96.7644
11,COc1ccc(OC(C)C(=O)Nc2cc3oc4ccccc4c3cc2OC)cc1 (stereo not drawn) [CBK266751],113.889
12,O=c1[nH]c(=O)c2cc(S(=O)(=O)N3CCc4[nH]c5ccccc5c4C3)ccc2[nH]1 [CBK285949],103.869
13,CCc1nc2ccc(C(=O)NCCN3CCOCC3)cn2c1N(C)Cc1cc2ccccc2s1 [CBK146561],107.845
14,CN1CCN(S(=O)(=O)c2ccc(-c3cnc(N)c(-c4ccc(O)cc4)n3)cc2F)CC1 [CBK131449],116.367
15,Cc1cc(/C=C(\C#N)c2nc3ccccc3[nH]2)c(C)n1-c1ccc(C(=O)O)cc1 [CBK267262],165.581
16,CCCCN1CC(=O)C(c2nc3ccccc3[nH]2)=C1N [CBK287777],124.119
17,N/N=C1\C2CN3CCN(C2)CC1(Cc1ccccc1)C3 [CBK261977],99.8843
18,Cc1ccc(NC(=O)/C(C#N)=C/c2ccc(-c3ccccc3C(=O)O)o2)cc1Cl [CBK263208],114.755
19,O=C(CCCN1C(=O)/C(=C\c2cccs2)SC1=S)Nc1cccc(C(=O)O)c1 [CBK263636],120.132
20,COc1cc(CNc2nccnc2-c2ccc(F)cc2)cc(OC)c1OC [CBK037328],124.331

# A few values from above:
# For % of control remaining [%], Cc1ccc(S(=O)(=O)NC(=O)N2CC3(C)CC2CC(C)(C)C3)cc1 (stereo not drawn) [CBK023512] is listed with 107.06
# For % of control remaining [%], Clc1ccc(-c2nc(-c3ccncc3)no2)c(Cl)c1 [CBK262615] is listed with 103.637

# (list continues)

row,SMILES,% of control remaining [%]
1,Cn1ncc(Cl)c1C1CCCCCN1C(=O)c1cc(C2CC2)on1 (stereo not drawn) [CBK284973],121.775
2,O=C(Nc1cc2ccccc2c(Br)n1)C(F)(F)F [CBK063301],104.24
3,CN1CCN(c2nc(NS(=O)(=O)c3ccc(C#N)cc3)cc3ccccc23)CC1 [CBK002977C],146.809
4,CC[C@H](Cn1nc(-c2cccs2)ccc1=O)NC(=O)C1CCC1 [CBK284295],125.953
5,COc1ccc(-c2ccccc2)cc1CN(Cc1ccc2c(c1)OCO2)CC(C)O (stereo not drawn) [CBK286471],109.282
6,CCOC(=O)c1cnn(-c2ccccc2)c1NS(=O)(=O)c1cccc(Cl)c1C [CBK024055],120.095
7,CC(=O)Nc1ccc(CNC(=O)c2cc(C)n(CC(F)(F)F)c2C)cc1 [CBK304523],133.565
8,Nc1c(C(=O)NCC2CCCO2)c2nc3ccccc3nc2n1C1CCCC1 (stereo not drawn) [CBK269217],68.9222
9,Cc1ccc(C)c(C(NC(=O)CCCn2ccnc2)c2ccncc2)c1 (stereo not drawn) [CBK281476],126.192
10,COc1cc(C(=O)N2CCC3(CC2)CC(=O)c2cc(-c4cccnc4)ccc2O3)cc(OC)c1C [CBK169606],72.6128
11,O=C1CC2(CCN(C(=O)C3CCCC3)CC2)Oc2ccccc21 [CBK283485],133.291
12,COCCSCc1cn2cc(Br)ccc2n1 [CBK306361],119.166
13,COC(=O)c1c(NC(=O)C(=O)NCc2ccco2)sc2c1CCCC2 [CBK269269],151.62
14,COc1cc(-c2nccnc2N2CCN(c3ccncc3)CC2)cc(OC)c1OC [CBK036847],182.217
15,Cc1nc(=O)c(-c2ccccc2)c(C)n1CCc1c[nH]cn1 [CBK287900],121.784
16,O=c1cc(NCCCN2CCN(Cc3ccccc3)CC2)c2ccccc2o1 [CBK011079],145.828
17,COc1cc(CNC(C)(C)CO)ccc1OCc1ccc(Cl)cc1 [CBK266433C],140.089
18,O=C(c1cnccn1)N1CCN(c2nc3c(F)cccc3s2)CC1 [CBK287722],114.413
19,CC(=O)NCCCCCC(=O)Nc1ccc(C(=O)O)cc1 [CBK287241],111.836
